# Results as given in PubChem BioAssay AID624297 (National Center for Advancing Translational Sciences (NCATS), 2012).
# Out of some 340,000 compounds screened, about 6,200 (1.8%) were called active. The shares of active, inactive and inconclusive entries below differ from those in the screen. Calls come from the whole dose curve; as a rule, active = well fitted activation curve with a large enough effect; inconclusive = small, poorly fitted or top-dose-only effect; inactive = no such curve, though single readings can be large or run the other way. Potencies of inconclusive entries are doubtful fits and often do not repeat.
# Experiment: A quantitative high throughput screen for small molecules that induce DNA re-replication in SW480 colon adenocarcinoma cells. For re-replication activation: % of control where 0% means no effect. Note: nearly all actives have a fitted effect of over 55% in size.
# Conditions: Hoechst DNA content imaging, 48 h; re-replication activation: at 46.1 µM (top of the series) unless noted
# Outline: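 SW480 cells exposed to compounds for 48 hr at 37 C, 5% CO2, then Hoechst-stained 40 min. Nuclear DNA content imaged by fluorescence scanning (405 nm excitation, 500-530 nm emission); re-replication scored as increased high-intensity nuclei.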
# Potency is the fitted concentration of half-maximal effect.
Structure (SMILES),Potency,re-replication activation
COc1ccc(-n2c(CN3CCN(c4ccccc4)CC3)nc3ccc([N+](=O)[O-])cc3c2=O)c(OC)c1,inactive,
Nc1c(Cl)ncnc1N1CCOCC1,inactive,
COCCCNC(=O)CCN1C(=O)COc2ccccc21,"inconclusive: 2.91 µM [activator, full curve]",
CCO[C@H]1OC(C(=O)Nc2ccccc2)=C[C@@H](c2csc3ccccc23)[C@@H]1CCCO,"inconclusive: 6.51 µM [activator, single point]",
COc1ccc(NC(=O)CN(C)C(=O)c2ccc(OCc3ccccc3)c(OC)c2)cc1,inactive,
CCN(CC)S(=O)(=O)c1ccc(Cc2ncc(C(F)(F)F)cc2Cl)s1,inactive,
NS(=O)(=O)c1ccc(NC(=S)Nc2nn(Cc3ccc(Cl)cc3Cl)cc2Cl)cc1,"inconclusive: 25.9 µM [activator, partial curve, poor fit]",
COc1ccc(N2CCN(CCS(=O)(=O)c3cc(Cl)ccc3Cl)CC2)cc1,active: 7.31 µM,
CCOC1(OCC)N=C(N)C2(C#N)C(c3ccc(NC(C)=O)cc3)C12C#N (configuration not stated),"inconclusive: 0.82 µM [activator, full curve, poor fit]",
CCCCC(=O)Nc1ccc(C)c(S(=O)(=O)N2CCCCCC2)c1,inactive,
COc1ccc(CCN2C(=O)CSC2c2ccc(OC)c(OC)c2)cc1OC (configuration not stated),inactive,
Cn1nc([N+](=O)[O-])nc1Sc1cccc2cccnc12,inactive,
Cc1ccc(-n2nnnc2Sc2nc([N+](=O)[O-])nn2C)cc1C,"inconclusive: 29.1 µM [activator, single point]",
COC(=O)c1cnc(Oc2ccc(NC(=O)NC(=O)c3c(OC)cccc3OC)cc2)cc1C(F)(F)F,active: 2.59 µM,
CC(C)(C)C(C(=O)O)N1CCS(=O)(=O)CC1 (configuration not stated),inactive,
Cc1ccc(/C(O)=C/C(=O)C(=O)NC23CC4CC(CC(C4)C2)C3)cc1,inactive,
Cc1cccc(NC(=O)CSc2nc3ccc(N4C(=O)c5ccccc5C4=O)cc3s2)c1C,"inconclusive: 29.1 µM [activator, single point]",
CC(=O)c1ccc(OCc2cc(C(=O)N(C)CCN3CCOCC3)no2)cc1,"inconclusive: 1.3 µM [activator, full curve]",
CC(C)c1ccc(NC(=S)N2CCCC(c3ccc(F)cc3)=N2)cc1,inactive,
CC(OC(=O)/C(C#N)=C/c1ccc(N(C)C)cc1)C(=O)N(C)Cc1ccccc1 (configuration not stated),"inconclusive: 11.6 µM [activator, partial curve, poor fit]",
CCCOc1c(Br)cc(C2C3=C(CCCC3=O)N(CC)C3=C2C(=O)CCC3)cc1OC,active: 16.4 µM,
O=C(CCNS(=O)(=O)c1cccc2nsnc12)N1CCc2ccccc21,"inconclusive: 20.6 µM [activator, partial curve, poor fit]",

# Complete entries, looked up by structure.
# Nc1c(Cl)ncnc1N1CCOCC1 as listed: Potency: inactive
# CCOC1(OCC)N=C(N)C2(C#N)C(c3ccc(NC(C)=O)cc3)C12C#N (configuration not stated) as listed: Potency: inconclusive: 0.82 µM [activator, full curve, poor fit]
# COc1ccc(-n2c(CN3CCN(c4ccccc4)CC3)nc3ccc([N+](=O)[O-])cc3c2=O)c(OC)c1 as listed: Potency: inactive
# Cc1ccc(-n2nnnc2Sc2nc([N+](=O)[O-])nn2C)cc1C as listed: Potency: inconclusive: 29.1 µM [activator, single point]

# More records follow:

Structure (SMILES),Potency,re-replication activation
CCn1nnnc1NCc1ccc(OCc2ccc(F)cc2Cl)c(OC)c1,inactive,
CCOc1ccc2nc(NCCCNC(=O)c3cc(OC)c(OC)c(OC)c3)c(C#N)cc2c1,active: 10.3 µM,
COc1ccc(N(Cc2cc3ccc(C)cc3[nH]c2=O)S(=O)(=O)c2ccccc2)cc1,"inconclusive: 23.1 µM [activator, single point]",
O=C(Nc1ccc(OCC(F)(F)C(F)F)c(C(F)(F)F)c1)c1ccccc1O,"inconclusive: 29.1 µM [activator, partial curve, poor fit]",
CN(CCCN1c2ccccc2CCc2ccccc21)CC(=O)c1ccc(Cl)cc1,"inconclusive: 33.5 µM [activator, single point]",
COc1ccccc1CNC(=O)c1cc(-c2ccncc2)nc2c(Cl)cccc12,"inconclusive: 18.4 µM [activator, partial curve, poor fit]",
CN1CCC(N(C)S(=O)(=O)c2ccc(NC(=O)COc3ccc(Cl)cc3)cc2)CC1,"inconclusive: 29.1 µM [activator, single point]",
O=C(CSCc1nc2ccccc2[nH]1)N1CCN(c2cccc(Cl)c2)CC1,"inconclusive: 32.6 µM [activator, partial curve, poor fit]",
COc1ccc2[nH]c3c4c(ccc3c2c1)C(=O)C=CC4=O,active: 3.26 µM,
CC1C(O)=C(c2nc3ccccc3[nH]2)C(=N)N1c1ccccc1 (configuration not stated),"inconclusive: 29.1 µM [activator, single point]",
CCOC(=O)c1ccc(N/C(=N/S(=O)(=O)c2ccccc2)c2ccccc2)cc1,active: 20.6 µM,
Oc1ccc(N=Nc2n[nH]c(-c3ccc(Br)cc3)n2)cc1,"inconclusive: 14.6 µM [activator, partial curve, poor fit]",
COc1ccc(/C=C/C(=O)Oc2cc(C)[nH]c(=O)c2[N+](=O)[O-])cc1OC,"inconclusive: 0.0046 µM [activator, full curve, poor fit]",
Fc1ccc(CNCc2ccccc2C(F)(F)F)cc1,active: 18.4 µM,
OCC1CCCN(c2nc(CN3CCCCC3)nc3scc(-c4ccccc4)c23)C1 (configuration not stated),"inconclusive: 29.1 µM [activator, single point]",
CN(CC(=O)NCCc1ccc(F)cc1)Cc1cccc(Cl)c1,inactive,
O=C1NN(c2ccc(F)cc2)C(=O)/C1=C/c1cccs1,inactive,
COc1cccc(NC(=O)c2cc(Cl)nnc2Cl)c1,"inconclusive: 2.31 µM [activator, partial curve, poor fit]",
Cc1ccc(NC(=O)CSc2nc3ccc(Nc4nc(N5CCOCC5)nc(N5CCOCC5)n4)cc3s2)cc1,"inconclusive: 20.6 µM [activator, single point]",
COc1ccc2[nH]c3c(c2c1)CCN1C(=O)C(CC(=O)NCC24CC5CC(CC(C5)C2)C4)C[C@H](C(=O)N(C(C)C)C(C)C)[C@@]31C (some centres not stated),"inconclusive: 29.1 µM [activator, single point]",
COc1ccc(C(=O)NC(=S)Nc2ccc(Cc3ccncc3)cc2)cc1,"inconclusive: 29.1 µM [activator, single point]",
N#C/C(=C\c1ccccc1)C(=O)Nc1cc(S(=O)(=O)N2CCOCC2)ccc1N1CCCC1,"inconclusive: 29.1 µM [activator, single point]",
COc1ccc(C(=O)Nc2nnc(S(=O)(=O)N(C)Cc3ccccc3)s2)cc1,,inconclusive: -29.9% [activator]

Structure (SMILES),Potency,re-replication activation
O=C(CSc1cccc2cccnc12)OCC(=O)c1ccccc1,"inconclusive: 16.4 µM [activator, single point]",
NS(=O)(=O)c1ccc(NC(=O)CN2CCN(S(=O)(=O)c3ccc(F)cc3)CC2)cc1,"inconclusive: 29.1 µM [activator, single point]",
Cc1[nH]c2ccc(C(=O)Nc3ccncc3)cc2c1C,inactive,
Cc1nn(Cc2ccccc2Cl)c2sc(C(=O)NC(C)(C)C)cc12,"inconclusive: 18.4 µM [activator, single point]",
CC1(C)CC(=O)C=C(NC2=CC3OC(c4ccccc4)OCC3OC2=O)C1 (configuration not stated),"inconclusive: 20.6 µM [activator, single point]",
CN(C)CCCN(C(=O)c1cc(-c2cccs2)nc2ccccc12)c1nc2ccc(F)cc2s1,"inconclusive: 29.1 µM [activator, single point]",
COC(=O)c1ccc(Nc2cc(C)nc3ccccc23)cc1,"inconclusive: 20.6 µM [activator, single point]",
COc1ccccc1C(=O)Nc1ccccc1C(=O)NC1CCCCC1,"inconclusive: 29.1 µM [activator, single point]",
COC(=O)N/N=C\c1cc2c(cc1Br)OCO2,"inconclusive: 29.1 µM [activator, single point]",
Cc1cc(C(=S)N2CCOCC2)c(C)n1-c1ccc(Cl)cc1,inactive,
CNC(C)C#Cc1ccc2c(=O)c3cc(C)c(C)cc3oc2c1 (configuration not stated),"inconclusive: 3.66 µM [activator, single point]",
O=C(Nc1ccc(-c2nc3cccnc3s2)cc1)C1CCCO1 (configuration not stated),"inconclusive: 14.6 µM [activator, partial curve, poor fit]",
O=C(Nc1ccc(Cl)cc1)N1CCC(c2nc(-c3cccs3)no2)CC1,"inconclusive: 29.1 µM [activator, single point]",
CCC1CCc2c(sc3ncnc(N4CCOCC4)c23)C1 (configuration not stated),"inconclusive: 20.6 µM [activator, partial curve, poor fit]",
CCOc1ccc2nc(NCCCNS(=O)(=O)c3ccccc3)c(C#N)cc2c1,active: 7.31 µM,
COc1nc(Nc2ccc(-c3nc4ccccc4o3)cc2)nc(N2CCOCC2)n1,"inconclusive: 29.1 µM [activator, single point]",
Cc1ccc(N(Cc2ccccc2)C(=O)c2cc(S(=O)(=O)N3CCOCC3)ccc2C)cc1,inactive,
O=C(COc1ccccc1/C=C\c1[nH]c(=O)[nH]c(=O)c1[N+](=O)[O-])Nc1ccccc1,"inconclusive: 29.1 µM [activator, single point]",
CCOC(=O)C1=C(C)n2c(s/c(=C/c3cccc([N+](=O)[O-])c3)c2=O)=NC1c1ccc(O)c(OC)c1 (configuration not stated),"inconclusive: 2.91 µM [activator, full curve]",
CCCCN1C(=O)C(O)(CC(=O)c2ccccn2)c2ccccc21 (configuration not stated),"inconclusive: 16.4 µM [activator, single point]",
COc1ccc(S(=O)(=O)N2CCCC(C(=O)NCc3ccccn3)C2)cc1 (configuration not stated),inactive,
